# Results deposited as PubChem BioAssay AID602196 (INSERM, 2012).
# Test: 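Modifiers of cisplatin sensitivity in A549 cells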
# Cells: human A549 lung cancer cells
# Knock-down reagent: siRNA pair against human genes
# Time to read-out: 48 h transfection before cisplatin; time from cisplatin to read-out not stated
# Challenge: cisplatin at a dose killing half of control-siRNA cells; exact dose and duration not given
# Measurement: 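Cisplatin cell death as a shift from the 50% death seen with control siRNA; siRNAs toxic or growth-blocking alone scored 0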
# Scale: two-siRNA summed score (-2 to +2): higher = both siRNAs protect from cisplatin killing; -2 means both sensitise; mean protection from cisplatin (shift in death) and protection from cisplatin (shift in death), siRNA C: higher = protection from cisplatin killing
# Call rule: 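Each siRNA scores 0 if harmful alone by LDH or WST-1, otherwise +1 if it reduces and -1 if it increases cisplatin killing; a gene is active when both siRNAs agree (sum +2 or -2)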
# Calls: active = both siRNAs shift cisplatin killing the same way; inactive = no consistent shift, or siRNA harmful alone
# Shown is an unselected part of about 23,000 reagents tested. 455 of all reagents (2%) were called active. 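Active includes both protection and sensitisation; some change values fall well beyond the stated -50 to +50 range.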 Not all columns of the deposit are shown. Reagent sequences are not shown. The record does not give: the amount of reagent.
target,two-siRNA summed score (-2 to +2),mean protection from cisplatin (shift in death) (%),"protection from cisplatin (shift in death), siRNA C (%)",Call
PLEKHA3 (pleckstrin homology domain containing A3),0,4,0.2,inactive
IFITM3 (interferon induced transmembrane protein 3),0,2.6,8.9,inactive
CTIF (cap binding complex dependent translation initiation factor),0,10.1,-7.4,inactive
"DSTN (destrin, actin depolymerizing factor)",1,1.3,14,inactive
RRP8 (ribosomal RNA processing 8),0,5,7.8,inactive
PRRG4 (proline rich and Gla domain 4),-1,-6,-13,inactive
FOXE1 (forkhead box E1),0,-0.2,-1.9,inactive
PITPNM2 (phosphatidylinositol transfer protein membrane associated 2),0,6.9,7.7,inactive
LOC196394,0,4.5,9,inactive
"ZNF788P (zinc finger family member 788, pseudogene)",0,9.3,7.4,inactive
LOC442072,0,-3.4,-3.4,inactive
FXYD6 (FXYD domain containing ion transport regulator 6),0,8.6,12.1,inactive
SUDS3 (SIN3A corepressor complex component SDS3),-1,-18.3,-1.8,inactive
CENPQ (centromere protein Q),0,-8.2,-5.4,inactive
ZMIZ2 (zinc finger MIZ-type containing 2),0,7.6,11.2,inactive
LOC91664,1,20.7,28.1,inactive
LOC440501,1,10.9,15.3,inactive
PCDHA13 (protocadherin alpha 13),0,3.2,3.7,inactive
CSF3 (colony stimulating factor 3),0,2,1,inactive
LOC389753,-1,-7.3,-6.6,inactive
VMAC,1,15.8,15.2,inactive
WDR36 (WD repeat domain 36),1,5.3,7.8,inactive
PTK2B (protein tyrosine kinase 2 beta),0,2.4,9.2,inactive
OR8K1 (olfactory receptor family 8 subfamily K member 1),0,1.9,10.4,inactive
LRP10 (LDL receptor related protein 10),0,-4.9,-9.7,inactive
S100A3 (S100 calcium binding protein A3),1,14.7,17.1,inactive
SCGB2A1 (secretoglobin family 2A member 1),0,4.5,-0.1,inactive
LOC440444,1,9.7,20.5,inactive
LOC100288254,1,3,-10.5,inactive
MLLT3 (MLLT3 super elongation complex subunit),0,2.7,3.3,inactive
TCHHL1 (trichohyalin like 1),0,5.9,7.5,inactive
JAKMIP3 (Janus kinase and microtubule interacting protein 3),0,6.9,14.2,inactive
MAP1B (microtubule associated protein 1B),0,0.4,0.4,inactive

Entries listed so far whose target name begins with S or s:
target,two-siRNA summed score (-2 to +2),mean protection from cisplatin (shift in death) (%),"protection from cisplatin (shift in death), siRNA C (%)",Call
SUDS3 (SIN3A corepressor complex component SDS3),-1,-18.3,-1.8,inactive
S100A3 (S100 calcium binding protein A3),1,14.7,17.1,inactive
SCGB2A1 (secretoglobin family 2A member 1),0,4.5,-0.1,inactive

Continued:
target,two-siRNA summed score (-2 to +2),mean protection from cisplatin (shift in death) (%),"protection from cisplatin (shift in death), siRNA C (%)",Call
CLMB (calcimembrin),0,3.7,-4.8,inactive
DPP10 (dipeptidyl peptidase like 10),0,-3.1,5.7,inactive
SNRPB (small nuclear ribonucleoprotein polypeptides B and B1),0,15.5,5.9,inactive
ZDHHC23 (zDHHC palmitoyltransferase 23),-1,-5.7,-16.5,inactive
LOC442514,1,15.7,7.3,inactive
PRR30 (proline rich 30),0,1.6,7.7,inactive
AKAP4 (A-kinase anchoring protein 4),0,-0.6,3.1,inactive
PTTG1,0,-8.8,-8.9,inactive
ADIPOR1 (adiponectin receptor 1),-1,-23,-15.2,inactive
CLEC14A (C-type lectin domain containing 14A),0,-13.3,-13.8,inactive
SNX31 (sorting nexin 31),0,6.1,-2,inactive
MAP1A (microtubule associated protein 1A),0,-2.6,5.6,inactive
LOC440967,2,16.5,14,active
SIGLEC8 (sialic acid binding Ig like lectin 8),0,-6.2,-1,inactive
LOC400470,0,10.9,11.3,inactive
TBC1D31 (TBC1 domain family member 31),0,-7.1,-0.7,inactive
SNX18 (sorting nexin 18),0,10.8,6.4,inactive
FNDC1 (fibronectin type III domain containing 1),0,7.9,13.7,inactive
VWA1 (von Willebrand factor A domain containing 1),0,-0.6,-2.8,inactive
DCXR (dicarbonyl and L-xylulose reductase),0,3,-2.2,inactive
LARGE2 (LARGE xylosyl- and glucuronyltransferase 2),0,0.6,-1.9,inactive
TRPM5,-1,-6.7,-21.3,inactive
LOC400858,0,6.8,3.8,inactive
IGLL1 (immunoglobulin lambda like polypeptide 1),0,2.1,-5.3,inactive
